# According to article PMC7065907:
# Sequences of proteins named here, by UniProt entry; tags and fusion partners are left off.
# UniProt Q9NRX1: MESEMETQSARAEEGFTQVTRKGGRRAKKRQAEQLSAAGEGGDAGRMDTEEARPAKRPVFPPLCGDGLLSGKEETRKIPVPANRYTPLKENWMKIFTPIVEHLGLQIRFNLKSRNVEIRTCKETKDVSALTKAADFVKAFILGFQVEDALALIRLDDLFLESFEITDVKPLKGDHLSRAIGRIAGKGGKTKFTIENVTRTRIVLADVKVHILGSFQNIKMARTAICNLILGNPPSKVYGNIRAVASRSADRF
# UniProt Q13283: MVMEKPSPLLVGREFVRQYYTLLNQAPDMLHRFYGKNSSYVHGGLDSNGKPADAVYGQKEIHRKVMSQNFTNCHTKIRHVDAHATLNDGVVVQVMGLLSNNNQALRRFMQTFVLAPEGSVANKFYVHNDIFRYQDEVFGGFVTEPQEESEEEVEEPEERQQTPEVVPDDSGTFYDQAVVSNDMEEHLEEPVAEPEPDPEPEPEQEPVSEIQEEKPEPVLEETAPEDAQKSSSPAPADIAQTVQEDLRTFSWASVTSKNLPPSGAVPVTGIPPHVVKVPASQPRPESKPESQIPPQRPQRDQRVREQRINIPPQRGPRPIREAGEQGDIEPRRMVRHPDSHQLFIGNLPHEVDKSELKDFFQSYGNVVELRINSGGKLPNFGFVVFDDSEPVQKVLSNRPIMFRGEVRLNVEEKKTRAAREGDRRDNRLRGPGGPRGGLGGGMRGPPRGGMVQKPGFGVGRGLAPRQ
# Assays:
# Assay in all cases: affinity purification with mass spectrometry; one-step StrepTactin affinity purification of the StHA-tagged bait from lysates of tetracycline-induced HEK293 cells (lysis buffer with 2 µM avidin), elution with 2.5 mM d-desthiobiotin, biological triplicates, filtered against the HASt-GFP control
# [1] = target: USP16(C205S)-StHA (human) (UniProt Q9Y5T5)
# USP16(WT)-StHA (human) = USP16(WT)-StHA (human) (UniProt Q9Y5T5)
# RIOK1(kd)-StHA (human) = target: T1, RIOK1(kd)-StHA (human) (UniProt Q9BRS2)
# T1 sequence: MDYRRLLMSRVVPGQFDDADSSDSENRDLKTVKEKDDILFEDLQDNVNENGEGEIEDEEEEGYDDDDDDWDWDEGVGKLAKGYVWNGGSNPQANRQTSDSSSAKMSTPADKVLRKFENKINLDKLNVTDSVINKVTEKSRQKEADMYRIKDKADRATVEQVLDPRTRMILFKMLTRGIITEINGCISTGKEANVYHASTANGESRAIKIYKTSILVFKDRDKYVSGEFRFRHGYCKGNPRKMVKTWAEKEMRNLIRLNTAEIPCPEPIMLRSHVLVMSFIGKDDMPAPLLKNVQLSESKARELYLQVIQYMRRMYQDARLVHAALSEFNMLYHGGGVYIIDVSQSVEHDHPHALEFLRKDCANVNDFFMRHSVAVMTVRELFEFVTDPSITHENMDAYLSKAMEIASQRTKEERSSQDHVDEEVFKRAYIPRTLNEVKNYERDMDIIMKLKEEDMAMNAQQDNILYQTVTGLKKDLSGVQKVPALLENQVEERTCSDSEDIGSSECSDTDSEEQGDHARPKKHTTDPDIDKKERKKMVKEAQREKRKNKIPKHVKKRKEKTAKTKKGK
substance,measurement,setting,value
DIM2 (from UniProt Q9NRX1 1-252),binding,[1],binds
same,binding,USP16(WT)-StHA (human),binds
same,binding,RIOK1(kd)-StHA (human),binds
G3BP1 (from UniProt Q13283 1-466),binding,RIOK1(kd)-StHA (human),binds
NOG2 (from UniProt Q13823 1-731),binding,[1],binds weakly
same,binding,USP16(WT)-StHA (human),binds weakly
USP16 (from UniProt Q9Y5T5 1-823) (enzyme),binding,RIOK1(kd)-StHA (human),binds

# Results are given in words; binding and its absence hold for the method and conditions named. Binding seen in cells or lysates may run through a third protein. Here binding means that the protein was enriched with, or labelled near, the bait; the list need not be complete.
